Test results from PMC10163288.
The list shows a part of the results.

B1: il2ra_site1_3nfp_sap_16_mot_HHH_b1_03720_af2_000000263_0001_1_17_H_._HHH_b1_05759_af2_0001_0000100006_0000001_0_0001 (protein)
chain: DEAKAVAKLIEDAAKAAGVPRVEVEVHNGTVEVTLEGTDEAARAAEEAAKQMAERFGLSFEITTE
B2: il2ra_site1_2b5i_normal_mot_f5ff40796168375b462bec8614a1db4a_0001_1_000000138_0001_53_65_H_._HHH_b1_07969_0001_0000900032_0000001_1_af2pred_dldesign_0_af2pred (protein)
chain: SSSSSSAREDVEELLERVRELRAAGRLDEARRLLTLARRIAKANNDEELIKEVEELEKLLSSSSS
B3: il2ra_site2_2erj_sap_33_mot_3b06bd03f1c6bceadc68eab912867b79_0001_000000296_0001_36_50_H_._817f55ea79620009d595c52c317e02eb_0001_1_af2_0001_0000300006_0000001_1 … (protein)
chain: SSSSDWLHRLYKLAVRILELLARGNPEEAREVLEELEELAEETDSENAKEAAEALERQLNSSSSS
B4: il2ra_site2_3nfp_sap_18_mot_HHH_b1_03376_000000004_0001_41_55_H_._HHH_b2_00201_af2_0001_0000100022_0000001_0_0001 (protein)
chain: SSSSSDDHEVYEQVVELLKRAAHIEDEEEVERLLEEARRLAEELGDPVLRRSVEDSARALSSSSS
B5: il2ra_site1_3nfp_normal_mot_5dea99290cf7e133ebc5b763b21a7a39_0001_000000141_0001_34_49_H_._HHH_b1_06472_0001_0000300025_0000001_0 (protein)
chain: SSSSDEEEKEVEELLEEARELYENGNPQEASKLLERIWKLISHIGNLELAELLYELMRELSSSSS
B6: il2ra_site1_2b5i_sap_14_mot_HHH_b1_05188_af2_000000065_0001_43_56_H_._HHH_b1_02810_0001_0000100001_0000001_0_0001_af2pred_0001_af2pred (protein)
chain: SSSSDELLERVLELLREADELAKNGNPEEARRVLEEALEIVEELGSKNLRRLVEAMLKLASSSSS
B7: il2ra_site2_3nfp_normal_mot_HHH_b1_05627_af2_000000038_0001_43_56_H_._HHH_b1_04379_0001_0000300012_0000001_1 (protein)
chain: SSSSDKAEEYLEVALEVLRELIEEGNEEAVEEVIRAIKLLAEALNDEEIERELKKLEEEFSSSSS
B8: il2ra_site1_2b5i_normal_mot_HHH_b1_01949_af2_000000166_0001_1_19_H_._HHH_b2_00613_0001_0000300041_0000001_0_af2pred_0001_af2pred (protein)
chain: SSSSDEEFQRVDELYREASRLFRSGDKEEAREVLREAQEIAEEANDPTAVKDLERFLRAASSSSS
B9: il2ra_site1_3nfp_normal_mot_ems_3hC_921_af2_000000143_0001_22_40_H_._b9b1aa0f98829a21a591038753170461_0001_1_af2_0001_0000300017_0000001_0_af2pred_0001_af2pred_ … (protein)
chain: SEEIAELLVRRAVEQNSPRLLKRILENLERNLGDPEEAKRLLEELLELVLGDPEEVERLLELAEE
B10: il2ra_site1_3nfp_normal_mot_HHH_b1_04931_000000291_0001_38_56_H_._HHH_b2_03644_0001_0000100002_0000001_0_af2pred_0001_af2pred (protein)
chain: SSSSSDEEDREEVERLLEEAKRIEDPREANEVLKEALKIASEAGDPELYELVAKVLKELASSSSS
B11: il2ra_site2_3nfp_normal_mot_HHH_b1_04338_af2_000000107_0001_41_56_H_._HHH_b2_06761_0001_0000100005_0000001_0 (protein)
chain: SSSDESEEIFERAEKELRRLLEEGNREEATELTFEALEELKELGDDRLVLRLYAILQRALFSSSS
B12: il2ra_site2_3nfp_normal_mot_HHH_b1_07556_000000077_0001_42_55_H_._HHH_b2_08127_0001_0000300029_0000001_0 (protein)
chain: SSSSDLEEEAKEVIKEVEELLERGDPHEAFALLAEIIFKVVQLGNEEVFRLLAQVAHEVAESSSS
B13: il2ra_site1_1z92_sap_16_mot_934a834d9b8b770824478def2ff2f329_0001_af2_000000088_0001_15_30_H_._HHH_b1_00430_af2_0001_0000200020_0000001_0_0001_af2pred_0001_af2p … (protein)
chain: DEEEAREIVEEVEEDPELRKRLIELLAEKARVPPRLAEQFLKQLLRRVKHGDPNAVLDLLDLFEL
B14: il2ra_site1_3nfp_sap_15_mot_HHH_b1_00049_af2_000000088_0001_39_52_H_._HHH_b2_00565_af2_0001_0000500027_0000001_0_0001_af2pred_0001_af2pred_1_swapped (protein)
chain: SELEKEVEELLENGNPAKALDVLLRIARERDDPEVAQLIAELARRAARGEIPPEEAVRLALELLK
B15: il2ra_site2_3nfp_normal_mot_HHH_b1_05785_af2_000000002_0001_41_57_H_._HHH_b2_01690_af2_0001_0001000024_0000001_0 (protein)
chain: SSSSDDAEEYLRAALLLLELALEEGDEELFRRHAELIRLLAESLEDEEVQERVRELEEEFDSSSS
B16: il2ra_site1_1z92_normal_mot_HHH_b2_04375_000000267_0001_42_56_H_._a7d4ab743ae57deeac5d741f7278d18b_0001_0001_0000100010_0000001_0_af2pred_0001_af2pred_1 (protein)
chain: SEEELEELAKELGVPPEEVKVVLRLLREAEELGIPPEKVLEALIRNAERNGNPKLAEVLRELLER
B17: il2ra_site2_2erj_normal_mot_af86707857d369f3e1d85dcabc5f9321_0001_000000201_0001_14_29_H_._HHH_b2_01431_af2_0001_0000100004_0000001_0 (protein)
chain: SSSSEEAEELLEQAKELLEKGNPEEALKLLRKAFLIAYRLGDHELAAELQTLAHEAVRLEASSSS
B18: il2ra_site1_3nfp_normal_mot_d3e5e791db42274430e6ef9f54efc4f5_0001_af2_000000091_0001_1_15_H_._0e682a828debfc2446b6fbf8e9701eca_0001_0001_0000100007_0000001_0_af … (protein)
chain: SKVEEAKKKLKEAILARDIKKVYELLKELTELLGDEKEAARLAIEIAREAGRPKLVRFLEHALKC
B19: il2ra_site1_1z92_sap_10_mot_ems_4hC_799_0001_000000043_0001_18_33_H_._5202e8ad13ee9de4b1286d7ece000ddb_0001_af2_0001_0000400030_0000001_0_0001_af2pred_0001_af2p … (protein)
chain: SSSSSELEEFAREVVEELVKEFNLSERQQKSLEYIARLAVELGADEEEIEKALRRFAEFLGSSSS
B20: il2ra_site1_3nfp_sap_6_mot_HHH_b1_00258_000000025_0001_42_56_H_._HHH_b2_05877_0001_0000100002_0000001_0_0001 (protein)
chain: SADEYAVRMLKKDGFPPEKIVERLVKTAERVYNIPPEEAIKWLLEWLEELGDPLAEVVKELEERK
B21: il2ra_site1_2b5i_sap_7_mot_HHH_b1_01574_000000118_0001_1_19_H_._HHH_b1_01642_0001_0000300019_0000001_0_0001_af2pred_0001_af2pred_1 (protein)
chain: SSSSSDSREVFELLREANELFRNGNPEEAKRVLEEARELAEEAGNKNLLKSIEIALRLIESSSSS
B22: il2ra_site2_2erj_sap_26_mot_6ec3e94b46d95805cdcdc10c0c108f03_0001_af2_000000040_0001_36_50_H_._HHH_b2_08137_af2_0001_0000100005_0000001_0_0001 (protein)
chain: SSSSNEELHELYELAVRLLRLVAEGDEEEFEEVFKQLEKLIEELNSDTAREVLEALRKLLHSSSS
B23: il2ra_site1_3nfp_sap_20_mot_ems_3hC_921_af2_000000143_0001_22_40_H_._HHH_b1_02666_af2_0001_0000100004_0000001_0_0001_af2pred_0001_af2pred_1 (protein)
chain: SAVEELVRRALEEGKPPEEILRRFRETAEKLGLPPEEVLRIILEVAREVGDPELEELVEKELEET
B24: il2ra_site2_2erj_normal_mot_HHH_b1_02701_000000206_0001_22_38_H_._ems_3hM_2546_0001_0000400007_0000001_0_af2pred_0001_1_af2pred_swapped (protein)
chain: SSPEEAEKLLAEISRIAYERNDEEVFSRVSELMDLLHEARRNNDEETIERIAEELEELLEKIRSS

Molecular target: il2ra, P01589
Experiment: yeast display titration

| Binder | apparent Kd |
| --- | --- |
| B1 | inactive: no binding seen |
| B2 | inactive: no binding seen |
| B3 | inactive: no binding seen |
| B4 | inactive: no binding seen |
| B5 | inactive: no binding seen |
| B6 | inactive: no binding seen |
| B7 | inactive: no binding seen |
| B8 | inactive: no binding seen |
| B9 | inactive: no binding seen |
| B10 | inactive: no binding seen |
| B11 | inactive: no binding seen |
| B12 | inactive: no binding seen |
| B13 | inactive: no binding seen |
| B14 | inactive: no binding seen |
| B15 | inactive: no binding seen |
| B16 | inactive: no binding seen |
| B17 | inactive: no binding seen |
| B18 | inactive: no binding seen |
| B19 | inactive: no binding seen |
| B20 | inactive: no binding seen |
| B21 | inactive: no binding seen |
| B22 | inactive: no binding seen |
| B23 | inactive: no binding seen |
| B24 | inactive: no binding seen |

Individual results from the entries so far:
B5 | apparent Kd: inactive: no binding seen
B21 | apparent Kd: inactive: no binding seen
